From publication PMC6925144, “A prospective compound screening contest identified broader inhibitors for Sirtuin 1” (Scientific Reports, 2019)
Over roughly 3,200 compounds, “TSA(with NAD+) / Primary screening (TSA) / delta Tm (K)” has its median near -0.04; the highest 2% begin near 0.37. This is one part of the list.

Amino acid sequences for entries named in this document (tags omitted). Residues count along the entry.
UniProt Q96EB6, 2-747 limits assumed: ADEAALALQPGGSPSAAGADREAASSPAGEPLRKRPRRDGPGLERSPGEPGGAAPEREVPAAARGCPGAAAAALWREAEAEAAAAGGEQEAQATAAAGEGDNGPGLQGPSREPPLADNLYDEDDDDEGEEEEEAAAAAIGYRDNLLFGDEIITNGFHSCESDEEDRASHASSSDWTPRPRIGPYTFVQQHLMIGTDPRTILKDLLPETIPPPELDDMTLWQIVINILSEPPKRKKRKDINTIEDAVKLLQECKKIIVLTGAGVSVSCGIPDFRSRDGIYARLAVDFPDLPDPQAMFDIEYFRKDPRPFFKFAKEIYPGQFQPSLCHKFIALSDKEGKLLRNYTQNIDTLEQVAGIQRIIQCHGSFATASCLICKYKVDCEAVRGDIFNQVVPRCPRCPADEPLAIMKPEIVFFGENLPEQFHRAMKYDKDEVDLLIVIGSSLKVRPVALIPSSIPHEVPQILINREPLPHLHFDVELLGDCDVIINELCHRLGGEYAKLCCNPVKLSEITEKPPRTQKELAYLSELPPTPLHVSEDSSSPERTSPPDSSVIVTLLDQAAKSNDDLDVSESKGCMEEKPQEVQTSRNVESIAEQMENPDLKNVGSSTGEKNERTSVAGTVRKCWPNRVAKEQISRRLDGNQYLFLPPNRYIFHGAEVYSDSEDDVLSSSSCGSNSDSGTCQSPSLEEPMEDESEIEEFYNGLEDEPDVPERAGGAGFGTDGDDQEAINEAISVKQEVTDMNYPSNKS

Target: NAD-dependent deacetylase Sirtuin 1 (human, UniProt Q96EB6)
Test: primary screen, delta tm
Design: single well (n = 1, as 'the same TSA')
Details: 10 µM

| Compound | TSA(with NAD+) / Primary screening (TSA) / delta Tm (K) |
| --- | --- |
| Cc1cccc(-c2nc3ccccc3n3c(C)nnc23)c1 | -0.13 |
| CC1(C)CC(=O)C(=CNNC(=O)CC23CC4CC(CC(C4)C2)C3)C(=O)C1 | -0.06 |
| O=C(/C=C/c1ccco1)C1=C(O)C(=O)N(CCN2CCOCC2)C1c1ccncc1 (stereo not drawn) | -0.06 |
| Cc1cc(CNC(=O)Cc2sc(S)nc2C)on1 | -0.04 |
| COc1cc(CN(C)C(=O)CN2C(=O)NC3(CCc4ccccc43)C2=O)ccc1OCc1ccccc1 (stereo not drawn) | -0.02 |
| O=C(c1cc2c(s1)CCCC2)N(Cc1ccccc1)c1ccccc1 | -0.25 |
| O=C(NCCc1c[nH]c2ccccc12)C1=COCCO1 | -0.13 |
| COC(=O)CCN | -0.02 |
| CCC(CN)OC (stereo not drawn) | -0.11 |
| CSc1nc(-c2ccccc2)c[nH]1 | -0.09 |
| CC1CCC(NN)CC1 (stereo not drawn) | -0.01 |
| c1ccc(-c2[nH]c3c(ccc4ccccc43)c2-c2ccccc2)cc1 | 0.29 |
| O=C(CN1CCN(c2nc(-c3ccccc3)nc3ccccc23)CC1)Nc1nncs1 | -0.05 |
| CN(c1ccc(Oc2ncnc3ccccc23)cc1)S(=O)(=O)c1ccc2ccccc2c1 | -0.42 |
| Cc1c(C(=O)N2c3ccccc3NC(=O)C2(C)C)oc2ccc(Br)cc12 | -0.41 |
| CCc1c(C)c(C#N)c2nc3ccccc3n2c1S | 0.46 |
| COC[C@@H](C)N | 0.05 |
| NC(=O)c1cnc(N2CCC(N3CCNC3=O)CC2)c(Cl)c1 | -0.01 |
| CCc1ccc(-c2noc(COc3ccc(-c4nnco4)cc3)n2)cc1 | -0.01 |
| CNS(=O)(=O)c1cc(N)ccc1C | -0.06 |
| O=C(CN1CCCCCC1=O)N1CCN(c2cnccn2)CC1 | -0.04 |
| CCCCn1c(=O)c2c(nc3n(CCCC)c(C)cn23)n(C)c1=O | -0.06 |
| CN(c1ccccc1)S(=O)(=O)c1cccc(NC(=O)c2ccc(C(N)=O)cc2)c1 | -0.01 |
| CC(C)(C)c1ccc(OCCCC(=O)Nc2cccc(S(=O)(=O)N3CCOCC3)c2)cc1 | 0.02 |

In another format: entries from further up.
Compound | TSA(with NAD+) / Primary screening (TSA) / delta Tm (K)
CC1(C)CC(=O)C(=CNNC(=O)CC23CC4CC(CC(C4)C2)C3)C(=O)C1 | -0.06
O=C(/C=C/c1ccco1)C1=C(O)C(=O)N(CCN2CCOCC2)C1c1ccncc1 (stereo not drawn) | -0.06
Cc1cc(CNC(=O)Cc2sc(S)nc2C)on1 | -0.04
COc1cc(CN(C)C(=O)CN2C(=O)NC3(CCc4ccccc43)C2=O)ccc1OCc1ccccc1 (stereo not drawn) | -0.02
O=C(c1cc2c(s1)CCCC2)N(Cc1ccccc1)c1ccccc1 | -0.25
O=C(NCCc1c[nH]c2ccccc12)C1=COCCO1 | -0.13
COC(=O)CCN | -0.02
CCC(CN)OC (stereo not drawn) | -0.11
CSc1nc(-c2ccccc2)c[nH]1 | -0.09
CC1CCC(NN)CC1 (stereo not drawn) | -0.01
c1ccc(-c2[nH]c3c(ccc4ccccc43)c2-c2ccccc2)cc1 | 0.29
O=C(CN1CCN(c2nc(-c3ccccc3)nc3ccccc23)CC1)Nc1nncs1 | -0.05
CN(c1ccc(Oc2ncnc3ccccc23)cc1)S(=O)(=O)c1ccc2ccccc2c1 | -0.42
Cc1c(C(=O)N2c3ccccc3NC(=O)C2(C)C)oc2ccc(Br)cc12 | -0.41
CCc1c(C)c(C#N)c2nc3ccccc3n2c1S | 0.46
COC[C@@H](C)N | 0.05
NC(=O)c1cnc(N2CCC(N3CCNC3=O)CC2)c(Cl)c1 | -0.01
CCc1ccc(-c2noc(COc3ccc(-c4nnco4)cc3)n2)cc1 | -0.01

(further entries)

| Compound | TSA(with NAD+) / Primary screening (TSA) / delta Tm (K) |
| --- | --- |
| c1ccc2c(c1)NCC1CCCN21 (stereo not drawn) | -0.04 |
| CCc1cc2c(N3CCC(C(=O)Nc4cc(C)on4)CC3)ncnc2s1 | 0.05 |
| CN(Cc1nc2ccccc2c(=O)[nH]1)C(=O)c1ccc(COc2ccccc2C#N)o1 | -0.01 |
| c1ccc(-c2cn(-c3nc(-c4cccnc4)nc4ccccc34)cn2)cc1 | 0.16 |
| O=C(NC1CCOc2ccccc21)c1ccc2c(c1)NC(=O)C1CCCN21 (stereo not drawn) | -0.05 |
| Cn1ncc2c(N3CCN(C(=O)C4CC(=O)N(C5CCCC5)C4)CC3)ncnc21 (stereo not drawn) | -0.11 |
| Cc1ccc(C(=O)N2CC3(CCCC3)c3ccccc32)c(=O)[nH]1 | -0.22 |
| Cc1cc(N2CCN(c3ncccc3C(N)=O)CC2)nc(C2CC2)n1 | 0.05 |
| COC(=O)C[C@@H](C)OC(=O)c1ccc(F)cc1F | -0.05 |
| O=c1oc2ccc3ccccc3c2cc1-c1cn(-c2ccc(Br)cc2)c(S)n1 | -0.28 |
| N#CCCn1cc(/C=C/C(=O)NC2CC2c2cccc(F)c2)c2ccccc21 (stereo not drawn) | -0.03 |
| FC(F)(F)c1nnc2ccc(NCC3CCOC3)nn12 (stereo not drawn) | -0.16 |
| O=C(NCc1cccc(C(=O)NCc2ccco2)c1)Nc1nnc(C2CC2)s1 | -0.23 |
| CCC(N)c1nnn[nH]1 (stereo not drawn) | 0.02 |
| CN(c1ccccc1)S(=O)(=O)c1cccc(NC(=O)CCCc2c[nH]c3ccccc23)c1 | 0.39 |
| Cc1nn(-c2cccc(C(F)(F)F)c2)c2sc(C(=O)NC3CC3)cc12 | -0.01 |
| CC1CN(c2ncnc3ccsc23)CCO1 (stereo not drawn) | -0.26 |
| C[C@H](CCO)Nc1ccc(Br)cc1C#N | -0.13 |
| O=C(c1n[nH]c(=O)c2ccccc12)N1CCCC2(CCCCCC2)C1 | -0.28 |
| Cc1csc2c(-n3cc([N+](=O)[O-])cn3)ncnc12 | -0.26 |
| Cc1ccc2[nH]c(-c3cccs3)c(CCC(=O)O)c2c1 | -0.19 |
| COC(=O)CC(C)C(=O)NCc1c(C)nc2c(c1C)c(=O)[nH]n2C (stereo not drawn) | -0.02 |
| COc1ncccc1CNC(=O)CN(C)c1ncnc2nc[nH]c12 | -0.03 |
| COc1cc(C)ccc1OCC(=O)Nc1nc2c(s1)CN(C)CC2 | -0.06 |

| Compound | TSA(with NAD+) / Primary screening (TSA) / delta Tm (K) |
| --- | --- |
| O=C(O)c1cnc2[nH]c3ccccc3n2c1=O | -0.08 |
| CC(C)(CNc1cccc(F)c1[N+](=O)[O-])C(N)=O | -0.02 |
| NC(=O)c1ccc(-c2nnn(CC(=O)Nc3ccccc3N3CCCC3)n2)cc1 | -0.03 |
| CC(C)c1ccc(-n2cc(O)c(C(=O)N(C)CC(=O)O)n2)cc1 | -0.11 |
| NC(=O)c1csc(C(=O)Oc2cccc(-n3cccn3)c2)c1 | -0.03 |
| O=C(CSc1nnc(-c2ccccc2)o1)N(Cc1ccccc1)c1nc2c(s1)CCCC2 | 0.08 |
| Cc1csc(NC(=O)c2cc(S(=O)(=O)Nc3ccccc3C)ccc2C)n1 | -0.01 |
| Cc1noc(CN2CCN(c3ncnc4c3oc3ccccc34)CC2)n1 | -0.13 |
| Cc1cc(C(C)NCCCO)ccc1Br (stereo not drawn) | -0.03 |
| CC(=O)NC12CC3CC(C1)CC(C(=O)NNC(=O)COc1ccccc1Cc1ccccc1)(C3)C2 | -0.28 |
| Cc1cc(C(=O)O)ncc1C#N | 0.05 |
| CS(=O)(=O)c1ccc(C(=O)N(Cc2ccccc2)c2ccccc2)cc1 | -0.05 |
| NCCCCCCN | 0.09 |
| Cc1cc(C(=O)CSc2nncn2-c2ccccc2)c(C)n1C1CC1 | -0.04 |
| CCCOc1ccc(C2C(C(=O)c3cccs3)=C(O)C(=O)N2CCCN2CCOCC2)cc1 (stereo not drawn) | 0.01 |
| Cc1ccc2nc(C)c(C(=O)Nc3ccccc3NC(=O)N3CCCC3)cc2c1 | -0.22 |
| CC(C)C(=O)N1CCCCC1C(=O)NCC1CCCN(Cc2cccs2)C1 (stereo not drawn) | -0.01 |
| O=C1NC(=O)c2cc([N+](=O)[O-])ccc21 | -0.01 |
| COc1ccc(NC(=O)c2cccc(S(=O)(=O)N(C)c3ccc(OC)cc3)c2)cc1 | -0.02 |
| COc1cc(CN(C)C(=O)c2ccc(N3CCCC3=O)cc2)ccc1OCc1ccccc1 | -0.11 |
| CN(c1cccc(Cl)c1)S(=O)(=O)c1cccc(C(=O)OCc2cc(=O)oc3ccc4ccccc4c23)c1 | 0.06 |
| O=C(CCn1[nH]c(=O)ccc1=O)Nc1nc(SCc2ccccc2)ns1 | -0.06 |
| O=C(CCCn1c(=O)oc2ccccc21)Nc1cccc(S(=O)(=O)NCc2ccco2)c1 | -0.11 |
| COc1ccc(N(C)S(=O)(=O)c2cccc(C(=O)OCc3ccc(C#N)cc3)c2)cc1 | -0.03 |

2 records picked at random from the list so far, as already listed:

| Compound | TSA(with NAD+) / Primary screening (TSA) / delta Tm (K) |
| --- | --- |
| CC(C)(CNc1cccc(F)c1[N+](=O)[O-])C(N)=O | -0.02 |
| COc1ccc(N(C)S(=O)(=O)c2cccc(C(=O)OCc3ccc(C#N)cc3)c2)cc1 | -0.03 |

Following part.

| Compound | TSA(with NAD+) / Primary screening (TSA) / delta Tm (K) |
| --- | --- |
| C=C(C)CSc1nnc(S)s1 | -0.09 |
| O=C1Nc2c(Cl)cc(Cl)cc2C1=O | -0.61 |
| c1nc(N2CCCSCC2)c2sccc2n1 | 0.09 |
| CN(C)C(=O)Cc1ccc(/N=C/c2cc3ccccc3nc2O)cc1 | -0.12 |
| CCNC(=O)NCc1ccc(NC(=O)Cc2cn(CC)c3ccccc23)cc1 | 0.09 |
| O=C(COC(=O)C1=COCCO1)Nc1cccc2c1C(=O)c1ccccc1C2=O | 0.01 |
| NC(=O)C1CCN(c2nc(CN3CCCCC3)nc3sc4c(c23)CCC4)CC1 | -0.19 |
| O=C(CCn1ccc2ccccc21)NCC(c1ccccc1)N1CCCC1 (stereo not drawn) | -0.19 |
| COc1ccc(NC(=O)c2ccc(NC(=O)COC(=O)C34CC5CC(CC(Br)(C5)C3)C4)cc2)cc1 | 0.73 |
| O=C1Nc2ccccc2/C1=C\c1cn(CCOc2ccccc2)c2ccc(Br)cc12 | 0.13 |
| c1ccc(CNc2ncnc3ccsc23)cc1 | 0.02 |
| O=C(NC(c1ccccc1)c1ccc2[nH]cnc2c1)C1=COCCO1 (stereo not drawn) | 0.18 |
| CC(OC(=O)c1ccc(C(N)=O)cc1)C(=O)N1CCCc2ccccc21 (stereo not drawn) | -0.11 |
| O=C(Nc1ccccc1)C1CCCN1C(=O)Cn1c(SC(F)F)nc2ccccc21 (stereo not drawn) | -0.11 |
| C=CCOc1ccc(C(=O)C2=C(O)C(=O)N(CCCN3CCOCC3)C2c2ccco2)cc1 (stereo not drawn) | 0.07 |
| O=C(OCC(=O)C12CC3CC(CC(C3)C1)C2)c1ccc2c(c1)C(=O)N(Cc1ccco1)C2=O | 0.09 |
| Cc1cc2occ(CC(=O)N3CCN(S(=O)(=O)c4cc(C(N)=O)n(C)c4)CC3)c2cc1C(C)C | -0.09 |
| O=C(NCCCc1nc2ccccc2[nH]1)C(=O)Nc1cccnc1 | 0.01 |
| NC(=O)c1cc(C2CCCN(c3nccc(-n4cccn4)n3)C2)n[nH]1 (stereo not drawn) | 0.05 |
| CC(C(=O)Nc1ccc(C(N)=O)cc1)N1CCN(c2ccc(O)cc2)CC1 (stereo not drawn) | -0.06 |
| NC(=O)c1ccc(NC(=O)CNc2cc(Cl)ccc2N2CCOCC2)cc1 | 0.03 |
| O=c1oc2ccc3ccccc3c2cc1-c1csc(-c2nc(-c3ccc(Br)cc3)cs2)n1 | -0.18 |
| CCOC(CNS(=O)(=O)c1ccc(C(N)=O)cc1)(OCC)c1ccccn1 | -0.01 |
| O=C(Cc1ccc(OCc2cccc3cccnc23)cc1)NCCO | -0.11 |
